In article PMC9532399, “The lysosomal transporter TAPL has a dual role as peptide translocator and phosphatidylserine floppase” (Nature Communications, 2022) one finds binding data, which are given here for 1 molecule.

The target of the assay is T1, mouse TAPL truncation mutant devoid of the N-terminal 142 residues (ΔTMD0) (mouse) (UniProt Q9JJ59).
T1 sequence: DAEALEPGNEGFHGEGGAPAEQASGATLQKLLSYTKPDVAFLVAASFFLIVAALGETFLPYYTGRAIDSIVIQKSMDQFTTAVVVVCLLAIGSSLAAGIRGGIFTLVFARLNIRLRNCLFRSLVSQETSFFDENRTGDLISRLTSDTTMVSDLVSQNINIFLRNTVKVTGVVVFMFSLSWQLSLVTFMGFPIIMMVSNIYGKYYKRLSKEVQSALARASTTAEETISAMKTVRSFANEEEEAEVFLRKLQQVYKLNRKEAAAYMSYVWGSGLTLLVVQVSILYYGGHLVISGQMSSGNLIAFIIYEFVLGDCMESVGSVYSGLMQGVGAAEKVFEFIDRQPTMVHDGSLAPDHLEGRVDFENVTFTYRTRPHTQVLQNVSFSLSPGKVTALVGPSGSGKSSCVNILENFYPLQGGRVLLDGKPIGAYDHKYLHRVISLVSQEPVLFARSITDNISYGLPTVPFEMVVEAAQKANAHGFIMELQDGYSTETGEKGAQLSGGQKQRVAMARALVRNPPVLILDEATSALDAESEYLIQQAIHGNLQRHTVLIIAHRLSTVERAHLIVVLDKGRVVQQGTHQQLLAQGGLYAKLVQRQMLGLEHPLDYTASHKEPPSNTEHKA
The assay can be described thus: condition: only with Mg2+/ADP·BeF3 (outward-facing state); 1 mM peptide; cryo-EM structure; ΔTMD0 in nanodiscs of E. coli polar lipids with 1 mM 9-mer peptide, 2 mM ATP, 2 mM MgCl2, 8 mM NaF, 2 mM BeSO4, 37 °C for 10 min; outward-facing ADP·BeF3-bound, 3.2 Å; both purified.

These are yes or no findings as the source states them, for the method shown.

B1: 9-mer peptide RRYQKSTEL (peptide)
peptide: RRYQKSTEL
notes: short synthetic peptide known to be transported by human TAPL; source: synthetic peptide (ANYGEN Co., Ltd.)
As for B1, the binding result is recorded as “no binding”.
